These are yes or no findings as the source states them, for the method shown. Binding seen in cells or lysates may run through a third protein. Here binding means that the protein was enriched with, or labelled near, the bait; the list need not be complete.
Molecular target: T1, TBP-TAP (C. albicans) (UniProt O43133)
T1 sequence: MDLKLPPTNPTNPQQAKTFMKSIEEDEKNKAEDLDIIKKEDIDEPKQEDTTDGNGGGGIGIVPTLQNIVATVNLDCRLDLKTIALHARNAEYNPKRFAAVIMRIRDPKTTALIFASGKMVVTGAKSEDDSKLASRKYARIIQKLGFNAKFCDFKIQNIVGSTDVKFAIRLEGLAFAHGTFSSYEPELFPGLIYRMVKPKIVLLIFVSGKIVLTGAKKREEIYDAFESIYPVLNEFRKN
Experiment: affinity purification with mass spectrometry; TBP-TAP and TAF11-TAP affinity purified from C. albicans strains, MudPIT; untagged strain SN87 as control

binding: binds
B1: TAF12 (protein, UniProt Q5ADM2 1-515)
chain: MDSSAASSQEKRVGTSTPEAELNPHRAKALLAKFKEEMALAKAATDPQEREKHSELVEKIKRILIRYQEQQKQAKNNSPATKSNLTNQDSTTNTPSPLATNNNSATNVIEPKTETPDSTPMEQKPIQAPTPQHPNNASTSSATMSTTQFQPQPQPQQQTVTVEKYNHVKNTLKDMWKQVKTLEASSINETQTKKEEIDRKITELRNQMQKYHTAALRMKSKLIEQGTIPANSTPIGSPTPVSNTDPTPIANTTNTSNVTPPTEKAEENSKPNVKPPSTTTTTTSKSKPKPLSTTATNSTTKTSTPSKGSGSSKSNNRSSSQNTPGTSTSASATKTASVSTEKDAPLTATTSTSAVAPAAATVAATTAPTAAAAATSLSTASAITTKSTADPKVTPSNIPDNDGRVLTKRKLVEMINNISIDQGDAKIPIDNDVEDIFLDLADEFVRNVVQFSGRLAKHRKLDRIDVRDVQLNLERNWGLRIPGYSTDEIRAARKWQPEGEYAENVKKISKLNKDQ

Reference: publication PMC12969390
